Data as given in PubChem BioAssay AID493246 (Drosophila RNAi Screening Center, 2011)
Purpose: 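Genome-wide search for dsRNAs that reduce cell number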 (primary screen). System: Drosophila Kc and S2R+ cells. Knock-down reagent: long dsRNA against Drosophila genes. Measurement: 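Raw, unnormalised count of remaining cells in each well; per-plate z-scores of cell number underlie the calls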. Reading the numbers: Kc cell number and S2R+ cell number: higher = more cells remaining. Active means: 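Counted as a hit if cell number falls by a z-score of at least 3 within its plate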.
The deposit covers about 21,000 reagents; shown is a random part of those that have a named target and a result. Of all reagents, 429 (2%) are marked active. 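Values are raw and not normalised between plates; calls rest on per-plate z-scores that were not deposited.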 Unmarked entries are inactive. A plus sign joins genes that one reagent is predicted to hit. Not given: the amount of reagent, the time to read-out.

What did the screen give for CG31419 [SID104195563]?
Kc cell number, rep 1: 1.44e6; Kc cell number, rep 2: 1.56e6; S2R+ cell number, rep 1: 1.05e6; S2R+ cell number, rep 2: 1.12e6

With CG17544 [SID104182416], what was measured?
Kc cell number, rep 1: 1.39e6; Kc cell number, rep 2: 1.43e6; S2R+ cell number, rep 1: 1.40e6; S2R+ cell number, rep 2: 1.32e6

What is on record for CG7903 [SID104196130]?
Kc cell number, rep 1: 1.50e6; Kc cell number, rep 2: 1.57e6; S2R+ cell number, rep 1: 1.09e6; S2R+ cell number, rep 2: 1.21e6

Which result is listed for mat [SID104188168]?
Kc cell number, rep 1: 1.62e6; Kc cell number, rep 2: 1.40e6; S2R+ cell number, rep 1: 1.03e6; S2R+ cell number, rep 2: 1.34e6

With CG1648 [SID104186402], what was measured?
Kc cell number, rep 1: 1.45e6; Kc cell number, rep 2: 1.48e6; S2R+ cell number, rep 1: 1.07e6; S2R+ cell number, rep 2: 1.16e6

What is on record for CG3708 [SID104198438]?
Kc cell number, rep 1: 1.62e6; Kc cell number, rep 2: 1.66e6; S2R+ cell number, rep 1: 1.04e6; S2R+ cell number, rep 2: 1.18e6

With CG13716 [SID104188117], what was measured?
Kc cell number, rep 1: 1.73e6; Kc cell number, rep 2: 1.70e6; S2R+ cell number, rep 1: 1.07e6; S2R+ cell number, rep 2: 1.16e6

With CG17751 [SID104195053], what does the deposit list?
Kc cell number, rep 1: 1.35e6; Kc cell number, rep 2: 1.48e6; S2R+ cell number, rep 1: 1.06e6; S2R+ cell number, rep 2: 1.10e6

What is on record for CG5151 [SID104190279]?
Kc cell number, rep 1: 1.47e6 (active); Kc cell number, rep 2: 1.51e6; S2R+ cell number, rep 1: 7.58e5; S2R+ cell number, rep 2: 8.29e5

What did the screen give for Taf12L [SID104180259]?
Kc cell number, rep 1: 1.68e6; Kc cell number, rep 2: 1.52e6; S2R+ cell number, rep 1: 1.10e6; S2R+ cell number, rep 2: 1.25e6

With Elba2 [SID104180523], what does the deposit list?
Kc cell number, rep 1: 1.28e6; Kc cell number, rep 2: 1.36e6; S2R+ cell number, rep 1: 8.76e5; S2R+ cell number, rep 2: 8.56e5

With CG31688 + CG31687 [SID104181908], what does the deposit list?
Kc cell number, rep 1: 1.55e6; Kc cell number, rep 2: 1.55e6; S2R+ cell number, rep 1: 1.07e6; S2R+ cell number, rep 2: 3.43e5

A stretch from the list above:
CG1648 [SID104186402] → Kc cell number, rep 1: 1.45e6; Kc cell number, rep 2: 1.48e6; S2R+ cell number, rep 1: 1.07e6; S2R+ cell number, rep 2: 1.16e6
CG3708 [SID104198438] → Kc cell number, rep 1: 1.62e6; Kc cell number, rep 2: 1.66e6; S2R+ cell number, rep 1: 1.04e6; S2R+ cell number, rep 2: 1.18e6
CG13716 [SID104188117] → Kc cell number, rep 1: 1.73e6; Kc cell number, rep 2: 1.70e6; S2R+ cell number, rep 1: 1.07e6; S2R+ cell number, rep 2: 1.16e6

The list goes on:
What did the screen give for Cypl [SID104188154]?
Kc cell number, rep 1: 1.34e6; Kc cell number, rep 2: 1.31e6; S2R+ cell number, rep 1: 1.10e6; S2R+ cell number, rep 2: 1.32e6

For Pgi [SID104187299], how do the results read?
Kc cell number, rep 1: 1.31e6; Kc cell number, rep 2: 1.35e6; S2R+ cell number, rep 1: 1.14e6; S2R+ cell number, rep 2: 1.25e6

With Syn [SID104196668], what was measured?
Kc cell number, rep 1: 1.46e6; Kc cell number, rep 2: 1.56e6; S2R+ cell number, rep 1: 1.15e6; S2R+ cell number, rep 2: 1.29e6

For CheB98a [SID104194674], what does the deposit list?
Kc cell number, rep 1: 1.57e6; Kc cell number, rep 2: 1.62e6; S2R+ cell number, rep 1: 1.01e6; S2R+ cell number, rep 2: 1.21e6

For CG12869 [SID104186000], what does the deposit list?
Kc cell number, rep 1: 1.54e6; Kc cell number, rep 2: 1.66e6; S2R+ cell number, rep 1: 1.34e6; S2R+ cell number, rep 2: 1.43e6

For para [SID104198933], how do the results read?
Kc cell number, rep 1: 1.24e6; Kc cell number, rep 2: 1.39e6; S2R+ cell number, rep 1: 1.11e6; S2R+ cell number, rep 2: 1.19e6

What did the screen give for para [SID104200152]?
Kc cell number, rep 1: 1.57e6; Kc cell number, rep 2: 1.54e6; S2R+ cell number, rep 1: 1.08e6; S2R+ cell number, rep 2: 1.21e6

For resilin [SID104185419], how do the results read?
Kc cell number, rep 1: 5.37e5; S2R+ cell number, rep 1: 7.61e5

How did the screen score resilin [SID104186387]?
Kc cell number, rep 1: 1.72e6; Kc cell number, rep 2: 1.76e6; S2R+ cell number, rep 1: 1.37e6; S2R+ cell number, rep 2: 1.54e6
